Measurements reported in PubChem BioAssay AID504764 (Drosophila RNAi Screening Center, 2011).

Test: 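Genes whose knock-down alters Notch-dependent transcription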 (primary screen)
Cell system: Drosophila Kc167 cells
Reagent: long dsRNA against Drosophila genes
Duration: about 5 days (4 days dsRNA, then 24 h after transfection)
Challenge: transfection of constitutively active membrane-tethered Notch lacking the extracellular domain, read 24 h later
Measured: 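Light from a Notch-responsive E(spl)m3 luciferase reporter under active Notch, with control-promoter and no-Notch reporter wells to normalise; raw counts from paired wells a and b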
Direction: induced reporter light, run 1, well a and induced reporter light, run 1, well b: higher = more light from the Notch target reporter with active Notch; control promoter light, run 1, well a and control promoter light, run 1, well b: higher = more light from the viral control promoter (cell number, transfection, viability); uninduced reporter light, run 1, well a: higher = more light from the Notch target reporter without active Notch
Hit rule: 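Wells with low control signal or poorly matching duplicates excluded; duplicates averaged; per source plate, z beyond ±2 for induced/control log2 ratio or beyond ±1.8 for induced/uninduced marks a hit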
Meaning of the calls: active = modifier hit (raised or lowered Notch signal); inactive = not a hit
The deposit covers about 22,000 reagents; this is an unselected part of those with a known target gene and a result. Over the whole deposit, 403 (1.9%) are marked active. 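Unnormalised raw counts per well; ratio z-scores behind the hit calls and whether each hit raises or lowers signal are not deposited.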 Entries without a mark were called inactive. Names joined by + are all predicted targets of the reagent. The record does not give: the amount of reagent.

| gene | dsRNA | induced reporter light, run 1, well a | induced reporter light, run 1, well b | control promoter light, run 1, well a | control promoter light, run 1, well b | uninduced reporter light, run 1, well a |
| --- | --- | --- | --- | --- | --- | --- |
| Os-C | DRSC16778 | 1.01e5 | 95815 | 77565 | 80400 | 6895 |
| CG18139 (retired record) + Hmx | DRSC15307 | 2.18e5 | 1.96e5 | 2.18e5 | 2.27e5 | 18930 |
| Mur89F (Mucin related 89F) | DRSC15544 | 1.83e5 | 1.93e5 | 1.96e5 | 2.01e5 | 17320 |
| Pos (Poseidon) | DRSC15415 | 1.15e5 | 97845 | 1.49e5 | 1.41e5 | 8265 |
| CG17118 | DRSC02579 | 1.25e5 | 1.29e5 | 76185 | 96635 | 20430 |
| Hexim (Hexamethylene bisacetamide inducible) | DRSC15490 | 1.23e5 | 1.01e5 | 85240 | 71500 | 9265 |
| hpRNA:CR18854 (hairpin RNA:CR18854) | DRSC02702 | 1.05e5 | 1.19e5 | 83700 | 1.07e5 | 17070 |
| Tip60 (Tat interactive protein 60kDa) | DRSC18661 | 2.11e5 (active) | 2.22e5 | 4.00e5 | 3.62e5 | 17360 |
| js (jiangshi) | DRSC15004 | 2.10e5 (active) | 2.19e5 | 1.41e5 | 1.31e5 | 14938 |
| CG15539 | DRSC15075 | 1.88e5 | 1.67e5 | 1.87e5 | 1.88e5 | 14165 |
| CG17059 | DRSC06654 | 88000 | 88040 | 1.15e5 | 1.01e5 | 8340 |
| CG8349 | DRSC03083 | 1.27e5 | 1.51e5 | 1.22e5 | 1.86e5 | 17255 |
| mtd (mustard) | DRSC12131 | 1.08e5 | 1.42e5 | 1.08e5 | 86520 | 11860 |
| mtd (mustard) | DRSC12380 | 1.09e5 | 1.14e5 | 86600 | 90150 | 9765 |
| mtd (mustard) | DRSC12381 | 83000 | 90605 | 1.29e5 | 68870 | 5535 |
| kek2 (kekkon 2) | DRSC03552 | 1.18e5 | 1.55e5 | 75875 | 1.09e5 | 17180 |
| acs (arcus) | DRSC08185 | 1.21e5 | 1.07e5 | 1.31e5 | 1.45e5 | 7410 |
| Prp5 (pre-mRNA processing factor 5) | DRSC19975 | 80125 | 91235 | 1.17e5 | 1.14e5 | 12005 |
| CG15814 | DRSC19730 | 1.00e5 | 67880 | 83685 | 57675 | 6465 |
| JYalpha | DRSC17224 | 97660 | 1.12e5 | 1.58e5 | 2.15e5 | 7732 |
| CG42380 + CG42379 + PIG-M + 1 more | DRSC03884 | 62515 | 70605 | 67145 | 80040 | 6455 |
| CG42380 + CG42379 + PIG-M + 1 more | DRSC04580 | 2.30e5 | 2.59e5 | 1.84e5 | 2.04e5 | 15710 |

5 entries already listed, sorted by “uninduced reporter light, run 1, well a”, lowest first.
| gene | dsRNA | induced reporter light, run 1, well a | induced reporter light, run 1, well b | control promoter light, run 1, well a | control promoter light, run 1, well b | uninduced reporter light, run 1, well a |
| --- | --- | --- | --- | --- | --- | --- |
| mtd (mustard) | DRSC12381 | 83000 | 90605 | 1.29e5 | 68870 | 5535 |
| acs (arcus) | DRSC08185 | 1.21e5 | 1.07e5 | 1.31e5 | 1.45e5 | 7410 |
| mtd (mustard) | DRSC12380 | 1.09e5 | 1.14e5 | 86600 | 90150 | 9765 |
| Prp5 (pre-mRNA processing factor 5) | DRSC19975 | 80125 | 91235 | 1.17e5 | 1.14e5 | 12005 |
| kek2 (kekkon 2) | DRSC03552 | 1.18e5 | 1.55e5 | 75875 | 1.09e5 | 17180 |

Next records follow:
| gene | dsRNA | induced reporter light, run 1, well a | induced reporter light, run 1, well b | control promoter light, run 1, well a | control promoter light, run 1, well b | uninduced reporter light, run 1, well a |
| --- | --- | --- | --- | --- | --- | --- |
| Megf8 (Multiple EGF like domains 8) | DRSC03058 | 1.89e5 | 2.19e5 | 2.15e5 | 1.68e5 | 17038 |
| GCS1 (Glucosidase 1) | DRSC19744 | 1.65e5 | 1.64e5 | 2.60e5 | 2.03e5 | 11850 |
| armi (armitage) | DRSC08193 | 81040 | 1.07e5 | 1.31e5 | 1.37e5 | 5780 |
| CG31213 | DRSC14312 | 2.03e5 | 1.89e5 | 2.14e5 | 2.21e5 | 16215 |
| CG31213 | DRSC15647 | 2.25e5 | 1.83e5 | 2.12e5 | 2.56e5 | 12900 |
| CG3842 | DRSC18326 | 1.64e5 | 1.48e5 | 3.12e5 | 2.26e5 | 11730 |
| flz (filzig) | DRSC07109 | 2.31e5 | 2.16e5 | 2.34e5 | 2.06e5 | 18985 |
| CG13313 | DRSC09984 | 1.70e5 | 1.54e5 | 1.63e5 | 1.63e5 | 10265 |
| Pgant35A (Polypeptide N-acetylgalactosaminyltransferase 35A) | DRSC03557 | 1.59e5 | 1.73e5 | 1.42e5 | 1.54e5 | 15255 |
| mRpS33 (mitochondrial ribosomal protein S33) | DRSC14239 | 2.19e5 | 2.20e5 | 2.34e5 | 2.32e5 | 15865 |
| Strn-Mlck (Stretchin-Mlck) | DRSC05032 | 1.26e5 | 1.15e5 | 2.68e5 | 2.67e5 | 9680 |
| Strn-Mlck (Stretchin-Mlck) | DRSC05598 | 1.50e5 | 1.38e5 | 1.82e5 | 1.78e5 | 11260 |
| Strn-Mlck (Stretchin-Mlck) | DRSC07471 | 1.88e5 | 1.15e5 | 1.46e5 | 1.54e5 | 10775 |
